Source: article doi:10.1101/2020.08.07.234443
Numbering of substitutions follows the chain as printed. Names and notes keep the numbering of the source. No constants are given. Whether binding was seen depends on the method and setting. Some results given as binding are weak or reduced against the parent protein; the word gives no strength.

T1: Pub1 RRM3 (S. cerevisiae) (UniProt P32588)
T1 sequence: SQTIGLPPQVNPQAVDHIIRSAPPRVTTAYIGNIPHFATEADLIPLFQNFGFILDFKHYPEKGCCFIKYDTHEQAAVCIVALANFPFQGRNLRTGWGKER

T2: eIF4G1_(1-249) (S. cerevisiae) (UniProt P39935)
T2 sequence: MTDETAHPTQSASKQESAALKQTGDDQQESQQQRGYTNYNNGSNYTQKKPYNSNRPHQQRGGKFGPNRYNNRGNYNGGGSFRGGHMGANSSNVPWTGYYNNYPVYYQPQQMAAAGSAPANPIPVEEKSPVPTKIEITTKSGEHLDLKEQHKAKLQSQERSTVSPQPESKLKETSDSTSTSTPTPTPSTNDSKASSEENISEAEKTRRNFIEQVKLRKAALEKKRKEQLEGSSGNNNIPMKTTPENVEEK

B1: eIF4G1_(1-249) (domain or fragment, UniProt P39935 1-249)
chain: T2 sequence
B2: eIF4G1_(1-402) (domain or fragment, UniProt P39935 1-402)
chain: MTDETAHPTQSASKQESAALKQTGDDQQESQQQRGYTNYNNGSNYTQKKPYNSNRPHQQRGGKFGPNRYNNRGNYNGGGSFRGGHMGANSSNVPWTGYYNNYPVYYQPQQMAAAGSAPANPIPVEEKSPVPTKIEITTKSGEHLDLKEQHKAKLQSQERSTVSPQPESKLKETSDSTSTSTPTPTPSTNDSKASSEENISEAEKTRRNFIEQVKLRKAALEKKRKEQLEGSSGNNNIPMKTTPENVEEKGSDKPEVTEKTKPAEEKSAEPEVKQETPAEEGEQGEKGQIKEESTPKVLTFAERLKLKKQQKEREEKTEGKENKEVPVQEETKSAIESAPVPPSEQVKEETEVAETEQSNIDESATTPAIPTKSDEAEAEVEAEAGDAGTKIGLEAEIETTTD
B3: eIF4G1_(1-305) (domain or fragment, UniProt P39935 1-305)
chain: MTDETAHPTQSASKQESAALKQTGDDQQESQQQRGYTNYNNGSNYTQKKPYNSNRPHQQRGGKFGPNRYNNRGNYNGGGSFRGGHMGANSSNVPWTGYYNNYPVYYQPQQMAAAGSAPANPIPVEEKSPVPTKIEITTKSGEHLDLKEQHKAKLQSQERSTVSPQPESKLKETSDSTSTSTPTPTPSTNDSKASSEENISEAEKTRRNFIEQVKLRKAALEKKRKEQLEGSSGNNNIPMKTTPENVEEKGSDKPEVTEKTKPAEEKSAEPEVKQETPAEEGEQGEKGQIKEESTPKVLTFAERLK
B4: eIF4G1_(1-82) (domain or fragment, UniProt P39935 1-82)
chain: MTDETAHPTQSASKQESAALKQTGDDQQESQQQRGYTNYNNGSNYTQKKPYNSNRPHQQRGGKFGPNRYNNRGNYNGGGSFR
B5: eIF4G1 BOX3 peptide (eIF4G1_(187-234)) (peptide, UniProt P39935 187-234)
peptide: STNDSKASSEENISEAEKTRRNFIEQVKLRKAALEKKRKEQLEGSSGN
B6: eIF4G1_(1-184) (domain or fragment, UniProt P39935 1-184)
chain: MTDETAHPTQSASKQESAALKQTGDDQQESQQQRGYTNYNNGSNYTQKKPYNSNRPHQQRGGKFGPNRYNNRGNYNGGGSFRGGHMGANSSNVPWTGYYNNYPVYYQPQQMAAAGSAPANPIPVEEKSPVPTKIEITTKSGEHLDLKEQHKAKLQSQERSTVSPQPESKLKETSDSTSTSTPTP
B7: eIF4G1_(1-184) W95A (domain or fragment, UniProt P39935 1-184)
chain: B6 chain with W95A
B8: eIF4G1_(1-184) Y105A/Y106A (domain or fragment, UniProt P39935 1-184)
chain: B6 chain with Y105A, Y106A
B9: eIF4G1_(1-184) Y98A/Y99A (domain or fragment, UniProt P39935 1-184)
chain: B6 chain with Y98A, Y99A
B10: eIF4G1_(1-348) (domain or fragment, UniProt P39935 1-348)
chain: MTDETAHPTQSASKQESAALKQTGDDQQESQQQRGYTNYNNGSNYTQKKPYNSNRPHQQRGGKFGPNRYNNRGNYNGGGSFRGGHMGANSSNVPWTGYYNNYPVYYQPQQMAAAGSAPANPIPVEEKSPVPTKIEITTKSGEHLDLKEQHKAKLQSQERSTVSPQPESKLKETSDSTSTSTPTPTPSTNDSKASSEENISEAEKTRRNFIEQVKLRKAALEKKRKEQLEGSSGNNNIPMKTTPENVEEKGSDKPEVTEKTKPAEEKSAEPEVKQETPAEEGEQGEKGQIKEESTPKVLTFAERLKLKKQQKEREEKTEGKENKEVPVQEETKSAIESAPVPPSEQVKE
B11: Pub1 RRM3 (domain or fragment, UniProt P32588 315-414)
chain: T1 sequence
B12: eIF4G1_(35-49) (peptide, UniProt P39935 35-49)
peptide: GYTNYNNGSNYTQKK

These binders were tested against T1, Pub1 RRM3 (S. cerevisiae) (assay: NMR titration).

binding | Binder
binds | B1

Target: T1, Pub1 RRM3 (S. cerevisiae)
Test: NMR titration
Remark: another data set of the same source

binding | Binder
binds weakly | B1
binds weakly | B2
binds weakly | B3
binds weakly | B4
no binding | B5
binds | B6
binds weakly | B7
binds weakly | B8
binds weakly | B9
binds weakly | B10

Each binder was assayed against T2, eIF4G1_(1-249) (S. cerevisiae) (assay: NMR titration).

binding | Binder
binds weakly | B11

Each binder was assayed against T1, Pub1 RRM3 (S. cerevisiae) (assay: NMR structure).

binding | Binder
binds weakly | B12
